Results are given in words; binding and its absence hold for the method and conditions named. Binding seen in cells or lysates may run through a third protein. Some results given as binding are weak or reduced against the parent protein; the word gives no strength. Where a sequence is shown, tags or fusion partners need not be part of it.
Target: USP9X (untagged, endogenous) (mouse (endogenous in ESCs and TSCs)) (UniProt P70398)
Assay: co-IP; USP9X antibody immunoprecipitation from Peg10^3xf/+ Usp9x^fl/y Rosa26.CreERT2 ESC lysate, tagged PEG10 detected with anti-FLAG blot; control: 4-hydroxytamoxifen to delete Usp9x

Chains of the proteins cited; added tags and fusions are not shown.
UniProt P70398: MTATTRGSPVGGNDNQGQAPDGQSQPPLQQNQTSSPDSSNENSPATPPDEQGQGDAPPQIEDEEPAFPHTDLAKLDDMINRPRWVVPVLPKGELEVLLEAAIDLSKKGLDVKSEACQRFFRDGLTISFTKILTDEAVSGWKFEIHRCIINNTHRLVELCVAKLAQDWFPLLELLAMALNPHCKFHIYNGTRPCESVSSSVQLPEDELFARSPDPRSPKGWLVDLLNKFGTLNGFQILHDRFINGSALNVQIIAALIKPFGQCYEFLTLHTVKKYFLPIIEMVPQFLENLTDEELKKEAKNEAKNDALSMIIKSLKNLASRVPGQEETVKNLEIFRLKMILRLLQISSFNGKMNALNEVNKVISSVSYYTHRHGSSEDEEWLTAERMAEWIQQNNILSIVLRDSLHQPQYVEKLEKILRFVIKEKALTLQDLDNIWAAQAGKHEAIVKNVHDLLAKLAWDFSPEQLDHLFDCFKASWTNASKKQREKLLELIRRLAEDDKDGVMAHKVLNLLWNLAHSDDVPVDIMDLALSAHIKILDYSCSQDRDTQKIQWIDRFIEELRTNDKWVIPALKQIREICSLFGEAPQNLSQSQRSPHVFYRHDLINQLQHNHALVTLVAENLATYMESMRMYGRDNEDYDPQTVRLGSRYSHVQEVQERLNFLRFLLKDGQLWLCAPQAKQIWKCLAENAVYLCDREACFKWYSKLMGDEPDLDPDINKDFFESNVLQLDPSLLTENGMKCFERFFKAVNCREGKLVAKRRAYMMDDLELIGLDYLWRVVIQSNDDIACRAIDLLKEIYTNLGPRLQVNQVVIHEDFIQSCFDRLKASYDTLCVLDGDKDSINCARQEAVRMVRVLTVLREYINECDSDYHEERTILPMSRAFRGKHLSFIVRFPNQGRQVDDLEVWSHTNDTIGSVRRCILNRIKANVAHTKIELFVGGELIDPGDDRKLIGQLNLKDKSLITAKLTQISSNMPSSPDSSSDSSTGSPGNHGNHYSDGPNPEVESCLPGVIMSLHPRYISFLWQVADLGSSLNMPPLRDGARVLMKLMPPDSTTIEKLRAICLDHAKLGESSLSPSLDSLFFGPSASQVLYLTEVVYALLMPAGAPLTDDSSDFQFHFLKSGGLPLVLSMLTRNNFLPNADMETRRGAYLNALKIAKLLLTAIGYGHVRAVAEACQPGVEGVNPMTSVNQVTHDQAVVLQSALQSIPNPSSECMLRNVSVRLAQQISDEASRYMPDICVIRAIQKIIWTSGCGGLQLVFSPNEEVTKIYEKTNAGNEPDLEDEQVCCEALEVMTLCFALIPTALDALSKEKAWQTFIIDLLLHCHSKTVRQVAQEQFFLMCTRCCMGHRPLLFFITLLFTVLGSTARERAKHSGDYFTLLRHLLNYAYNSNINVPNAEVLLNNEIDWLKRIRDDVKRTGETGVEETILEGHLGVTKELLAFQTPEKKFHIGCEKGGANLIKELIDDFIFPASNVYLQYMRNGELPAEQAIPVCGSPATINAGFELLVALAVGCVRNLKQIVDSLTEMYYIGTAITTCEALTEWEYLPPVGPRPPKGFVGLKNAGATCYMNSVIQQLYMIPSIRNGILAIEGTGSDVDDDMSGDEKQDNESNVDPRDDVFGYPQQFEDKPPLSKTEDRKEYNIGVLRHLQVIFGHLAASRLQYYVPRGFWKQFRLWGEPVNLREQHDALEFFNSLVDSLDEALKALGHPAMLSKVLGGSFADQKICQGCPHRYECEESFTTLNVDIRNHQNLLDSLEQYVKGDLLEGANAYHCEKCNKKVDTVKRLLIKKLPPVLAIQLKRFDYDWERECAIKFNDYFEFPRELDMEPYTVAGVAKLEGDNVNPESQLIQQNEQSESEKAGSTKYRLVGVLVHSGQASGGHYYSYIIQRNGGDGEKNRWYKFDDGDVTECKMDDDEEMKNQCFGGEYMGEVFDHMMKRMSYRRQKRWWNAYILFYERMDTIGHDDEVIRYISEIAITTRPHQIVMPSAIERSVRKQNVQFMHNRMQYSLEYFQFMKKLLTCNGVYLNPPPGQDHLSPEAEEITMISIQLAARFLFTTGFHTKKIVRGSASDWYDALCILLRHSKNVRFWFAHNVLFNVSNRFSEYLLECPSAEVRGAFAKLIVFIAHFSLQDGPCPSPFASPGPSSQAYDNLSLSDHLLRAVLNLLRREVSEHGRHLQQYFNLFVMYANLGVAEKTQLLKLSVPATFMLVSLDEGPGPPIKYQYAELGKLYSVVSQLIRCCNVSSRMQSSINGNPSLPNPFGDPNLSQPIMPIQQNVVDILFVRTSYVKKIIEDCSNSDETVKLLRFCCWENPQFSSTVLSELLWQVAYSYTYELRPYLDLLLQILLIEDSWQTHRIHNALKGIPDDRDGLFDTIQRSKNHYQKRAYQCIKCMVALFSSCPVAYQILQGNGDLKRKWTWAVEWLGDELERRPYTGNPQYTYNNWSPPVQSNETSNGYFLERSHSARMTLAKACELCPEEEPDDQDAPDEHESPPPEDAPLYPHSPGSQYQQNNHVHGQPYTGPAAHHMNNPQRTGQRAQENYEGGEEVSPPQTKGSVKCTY

B1: 3xFLAG.PEG10-RF1/2 (protein, UniProt Q7TN75 1-958)
chain: MAAAGGSSNCPPPPPPPPPNNNNNNNTPKSPGVPDAEDDDERRHDELPEDINNFDEDMNRQFENMNLLDQVELLAQSYSLLDHLDDFDDDDEDDDFDPEPDQDELPEYSDDDDLELQGAAAAPIPNFFSDDDCLEDLPEKFDGNPDMLGPFMYQCQLFMEKSTRDFSVDRIRVCFVTSMLIGRAARWATAKLQRCTYLMHNYTAFMMELKHVFEDPQRREAAKRKIRRLRQGPGPVVDYSNAFQMIAQDLDWTEPALMDQFQEGLNPDIRAELSRQEAPKTLAALITACIHIERRLARDAAAKPDPSPRALVMPPNSQTDPTEPVGGARMRLSKEEKERRRKMNLCLYCGNGGHFADTCPAKASKNSPPGKLPGPAVGGPSATGPERIRSPPSEASTQHLQVMLQIHMPGRPTLFVRAMIDSGASGNFIDQDFVIQNAIPLRIKDWPVMVEAIDGHPIASGPIILETHHLIVDLGDHREILSFDVTQSPFFPIVLGIRWLSTHDPHITWSTRSIVFNSDYCRLRCRMFAQIPSNLLFTVPQPNLHPYLLHHVHPHVHPHMHQHLHQHLHQFLHPDPHQYPHPDPHYHHHQQADMQHQLQQYLYQYLYYHLYPVMHHHLPPDQHEHLHEYLHQYLHQYLHQFLHHHLHPDLHQYLYQYLHNHMNPDPHHHPHPDPPQDPHHPPHQDPHQHPDPHQDPPHQDPHQDAHQDPHMDPHLHQHQHPQPQPHPQQHPNHPQQPPFFYHMAGFRIYHPVRYYYIQNVYTPVDEHVYPGHRVVDPNIEMIPGAHSLPSGHLYSMSESEMNALRNFVDRNVKDGLMTPTVAPNGAQVLQVKRGWKLQVTYNCRAPQSGTIQNQYLRMSLPNMGDPAHLASYGEFVQVPGYPYPAYVYYTSPHMMTAWYPVGRDVHGRIIVVPVVITWSQNTNRQPPVPQYPPPQPPPPPPPPPPPPPPPPASSCSAA
B1 was tested, and the binding was “binds”.

Source: publication PMC6450627
